HELM strings list residues between dots; [ac] is acetyl, [am] amide, other brackets name non-standard units.
Assay: general procedure: Fmoc solid-phase peptide synthesis; chloromethylated, hydroxymethylated, BHA or p-Me-BHA resin
Details: whole synthesis, HPLC

Substance: PEPTIDE1{[GAB].[dMrp].[dMrp].F.K.[am]}$$$$V2.0
- purity (crude or final not stated): 98.0%

Substance: PEPTIDE1{[GAB].[dMrp].[dMrp].[Mrp].K.[am]}$$$$V2.0
- purity (crude or final not stated): 98.0%

— EP0868429 (dated 2002)
